For 1 substance, binding results are on record in PMC3805583.

Results are given in words; binding and its absence hold for the method and conditions named. Binding seen in cells or lysates may run through a third protein. Binding calls can cover weak binding; strength is not graded here. Where a sequence is shown, tags or fusion partners need not be part of it.

For the assay, the target named is T1, C-terminally GST-tagged murine LOX-PP-WT (1-162 aa) (mouse) (UniProt P28301).
T1 sequence: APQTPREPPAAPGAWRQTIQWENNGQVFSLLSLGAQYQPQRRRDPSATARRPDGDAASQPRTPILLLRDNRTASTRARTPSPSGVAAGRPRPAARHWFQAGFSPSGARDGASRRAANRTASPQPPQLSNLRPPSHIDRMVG
As to the kind of experiment: pull-down; GST or LOX-PP-GST (WT, deletion or point mutants) co-expressed with tagged CIN85 or CD2AP in HEK293T cells; GST pull-down from extracts; WB for the tag, for GST or for endogenous CD2AP.

Turning to “FLAG-tagged CIN85 NT (3 SH3 domains) (rat) (domain or fragment)”, the binding entry is listed as “binds”.
